The list shows a part of the results. Hit calls seldom repeat between salt and free forms of one compound.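 Kinases were expressed as nanoluciferase fusions in K562 cells and luminescence was read every 4 h between 2 and 18 h as percent of control, DMSO set to 100% and a positive control to 0%. A time point counts as decreased when the signal drops significantly (2 sigma). The hit call is the authors' own, does not follow from the count of time points alone, and its rule is not shown.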
Tests used:
Assay in all cases: kinase-Nluc reporter destabilization hit call (1 = scored as downregulated) (binary); higher = compound decreases kinase abundance
Conditions in all cases: K562, 2-18 h
MAPK1 = MAPK1 (UniProt P28482)
MAPK4 = MAPK4 (UniProt P31152)
MAPKAPK2 = MAPKAPK2 (UniProt P49137)
MKNK1 = MKNK1 (UniProt Q9BUB5)
NTRK2 = NTRK2 (UniProt Q16620)
NTRK3 = NTRK3 (UniProt Q16288)
PAK4 = PAK4 (UniProt O96013)
PBK = PBK (UniProt Q96KB5)
PDGFRB = PDGFRB (UniProt P09619)
PDK1 = PDK1 (UniProt Q15118)
PDPK1 = PDPK1 (UniProt O15530)
PIK4CA = PIK4CA (UniProt P42356)
PIK4CB = PIK4CB (UniProt Q9UBF8)
PLK1 = PLK1 (UniProt P53350)
PRKAA1 = PRKAA1 (UniProt Q13131)
PRKCA = PRKCA (UniProt P17252)
PTK2 = PTK2 (UniProt Q05397)
PTK2B = PTK2B (UniProt Q14289)
RAF1 = RAF1 (UniProt P04049)
[1] = target: RAF1_S257L (clone: RAF1_mut) (UniProt P04049)

Chains of the proteins cited; added tags and fusions are not shown. Lines headed by an entry give the natural chain unless they say otherwise; changes in a name come on top.
UniProt P49137, whole entry, looked up: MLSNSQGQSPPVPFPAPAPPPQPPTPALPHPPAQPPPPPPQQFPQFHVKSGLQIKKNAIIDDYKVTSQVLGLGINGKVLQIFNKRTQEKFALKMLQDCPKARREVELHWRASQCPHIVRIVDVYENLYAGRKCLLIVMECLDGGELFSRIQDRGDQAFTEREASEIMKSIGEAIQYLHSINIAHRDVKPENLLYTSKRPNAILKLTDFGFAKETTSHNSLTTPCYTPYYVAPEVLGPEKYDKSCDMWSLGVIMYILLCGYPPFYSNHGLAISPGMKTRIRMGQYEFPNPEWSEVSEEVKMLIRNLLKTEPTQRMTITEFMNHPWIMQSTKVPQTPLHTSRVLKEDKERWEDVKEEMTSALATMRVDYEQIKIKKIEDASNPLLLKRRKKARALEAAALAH
UniProt Q9BUB5: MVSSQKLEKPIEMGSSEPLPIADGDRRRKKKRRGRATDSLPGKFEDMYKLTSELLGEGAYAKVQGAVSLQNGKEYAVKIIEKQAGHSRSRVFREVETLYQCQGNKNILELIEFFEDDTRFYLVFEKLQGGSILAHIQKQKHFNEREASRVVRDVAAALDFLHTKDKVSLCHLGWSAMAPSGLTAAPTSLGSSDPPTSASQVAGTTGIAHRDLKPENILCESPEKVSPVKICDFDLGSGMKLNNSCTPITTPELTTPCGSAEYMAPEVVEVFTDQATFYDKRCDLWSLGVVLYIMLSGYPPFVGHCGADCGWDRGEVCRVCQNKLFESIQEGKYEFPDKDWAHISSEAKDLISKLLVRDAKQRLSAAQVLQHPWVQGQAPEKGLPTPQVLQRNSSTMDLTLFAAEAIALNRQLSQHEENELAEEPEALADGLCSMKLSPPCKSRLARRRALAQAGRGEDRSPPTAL
UniProt Q16288, whole entry, looked up: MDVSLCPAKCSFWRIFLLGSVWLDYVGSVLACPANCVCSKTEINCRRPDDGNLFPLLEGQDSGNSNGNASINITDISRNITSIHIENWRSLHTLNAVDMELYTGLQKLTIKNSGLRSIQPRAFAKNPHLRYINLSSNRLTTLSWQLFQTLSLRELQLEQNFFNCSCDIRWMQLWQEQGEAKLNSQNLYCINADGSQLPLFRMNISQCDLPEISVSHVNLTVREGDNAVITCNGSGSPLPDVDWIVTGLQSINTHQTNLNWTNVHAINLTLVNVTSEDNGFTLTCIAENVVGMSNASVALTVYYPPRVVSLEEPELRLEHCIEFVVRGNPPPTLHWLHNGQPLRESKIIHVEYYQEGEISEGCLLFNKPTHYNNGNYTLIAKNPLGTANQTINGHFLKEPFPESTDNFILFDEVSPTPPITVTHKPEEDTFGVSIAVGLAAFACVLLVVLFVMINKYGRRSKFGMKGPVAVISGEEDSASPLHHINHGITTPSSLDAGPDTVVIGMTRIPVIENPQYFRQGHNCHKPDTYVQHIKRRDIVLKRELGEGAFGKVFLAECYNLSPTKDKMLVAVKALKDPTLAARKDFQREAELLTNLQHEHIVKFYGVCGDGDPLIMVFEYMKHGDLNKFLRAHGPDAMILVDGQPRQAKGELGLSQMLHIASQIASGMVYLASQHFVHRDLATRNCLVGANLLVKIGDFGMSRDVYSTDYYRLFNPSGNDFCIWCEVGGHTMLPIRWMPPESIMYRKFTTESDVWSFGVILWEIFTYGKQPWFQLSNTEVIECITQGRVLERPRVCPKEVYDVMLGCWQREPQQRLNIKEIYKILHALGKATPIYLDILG
UniProt P09619, whole entry: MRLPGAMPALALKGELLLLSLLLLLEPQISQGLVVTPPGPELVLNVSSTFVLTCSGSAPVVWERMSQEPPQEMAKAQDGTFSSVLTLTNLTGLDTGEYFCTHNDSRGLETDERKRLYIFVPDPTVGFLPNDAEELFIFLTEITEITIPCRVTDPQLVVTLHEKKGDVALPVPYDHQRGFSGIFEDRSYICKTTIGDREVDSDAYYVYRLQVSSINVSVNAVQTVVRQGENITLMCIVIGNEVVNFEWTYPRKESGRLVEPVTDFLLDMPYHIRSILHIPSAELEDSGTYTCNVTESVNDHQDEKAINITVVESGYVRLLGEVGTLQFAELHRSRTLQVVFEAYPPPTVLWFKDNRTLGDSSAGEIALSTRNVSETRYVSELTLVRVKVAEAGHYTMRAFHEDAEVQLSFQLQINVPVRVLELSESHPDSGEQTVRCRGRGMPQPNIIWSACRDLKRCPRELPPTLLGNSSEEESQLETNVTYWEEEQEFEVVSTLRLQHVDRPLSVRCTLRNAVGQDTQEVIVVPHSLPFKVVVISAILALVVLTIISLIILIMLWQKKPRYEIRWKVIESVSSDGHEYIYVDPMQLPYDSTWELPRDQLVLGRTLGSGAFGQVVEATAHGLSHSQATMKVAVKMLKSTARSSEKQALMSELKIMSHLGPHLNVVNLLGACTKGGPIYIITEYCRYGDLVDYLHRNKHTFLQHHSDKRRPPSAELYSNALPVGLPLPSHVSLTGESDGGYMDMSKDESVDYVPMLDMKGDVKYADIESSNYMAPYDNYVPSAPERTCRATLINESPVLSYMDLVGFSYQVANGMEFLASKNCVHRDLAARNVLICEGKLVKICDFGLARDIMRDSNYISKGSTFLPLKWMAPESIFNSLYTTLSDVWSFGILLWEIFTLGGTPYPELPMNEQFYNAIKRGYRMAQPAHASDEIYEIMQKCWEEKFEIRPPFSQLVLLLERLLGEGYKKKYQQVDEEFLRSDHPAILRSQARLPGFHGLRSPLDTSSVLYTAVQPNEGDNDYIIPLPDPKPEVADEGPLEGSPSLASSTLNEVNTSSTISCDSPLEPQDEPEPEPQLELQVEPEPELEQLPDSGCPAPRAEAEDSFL
UniProt Q15118, whole entry, looked up: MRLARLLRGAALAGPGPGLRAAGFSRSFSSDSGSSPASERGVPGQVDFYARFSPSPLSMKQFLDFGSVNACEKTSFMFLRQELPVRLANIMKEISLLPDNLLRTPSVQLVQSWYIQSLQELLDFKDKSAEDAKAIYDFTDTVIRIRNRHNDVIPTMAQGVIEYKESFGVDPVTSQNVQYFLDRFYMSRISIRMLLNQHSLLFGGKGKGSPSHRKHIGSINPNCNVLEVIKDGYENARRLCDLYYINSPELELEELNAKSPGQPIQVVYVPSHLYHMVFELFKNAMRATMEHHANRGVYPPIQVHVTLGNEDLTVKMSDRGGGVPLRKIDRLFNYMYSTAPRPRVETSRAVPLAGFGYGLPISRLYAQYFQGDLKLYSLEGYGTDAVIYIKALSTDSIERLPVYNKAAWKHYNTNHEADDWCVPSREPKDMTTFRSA
UniProt O15530: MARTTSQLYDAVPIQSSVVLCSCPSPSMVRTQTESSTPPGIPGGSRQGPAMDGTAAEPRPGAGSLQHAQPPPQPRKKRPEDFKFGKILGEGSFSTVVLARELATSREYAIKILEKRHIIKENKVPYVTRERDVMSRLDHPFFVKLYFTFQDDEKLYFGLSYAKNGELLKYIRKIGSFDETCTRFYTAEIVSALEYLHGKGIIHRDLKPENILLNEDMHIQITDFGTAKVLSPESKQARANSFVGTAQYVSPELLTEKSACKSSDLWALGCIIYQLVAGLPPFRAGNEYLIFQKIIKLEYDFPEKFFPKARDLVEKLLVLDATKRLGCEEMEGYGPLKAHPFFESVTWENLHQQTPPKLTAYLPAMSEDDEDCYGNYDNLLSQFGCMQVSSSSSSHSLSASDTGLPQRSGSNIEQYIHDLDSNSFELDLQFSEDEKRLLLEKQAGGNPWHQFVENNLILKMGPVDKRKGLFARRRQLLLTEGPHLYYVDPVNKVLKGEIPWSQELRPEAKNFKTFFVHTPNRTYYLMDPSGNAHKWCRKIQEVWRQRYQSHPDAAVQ
UniProt Q05397, whole entry, looked up: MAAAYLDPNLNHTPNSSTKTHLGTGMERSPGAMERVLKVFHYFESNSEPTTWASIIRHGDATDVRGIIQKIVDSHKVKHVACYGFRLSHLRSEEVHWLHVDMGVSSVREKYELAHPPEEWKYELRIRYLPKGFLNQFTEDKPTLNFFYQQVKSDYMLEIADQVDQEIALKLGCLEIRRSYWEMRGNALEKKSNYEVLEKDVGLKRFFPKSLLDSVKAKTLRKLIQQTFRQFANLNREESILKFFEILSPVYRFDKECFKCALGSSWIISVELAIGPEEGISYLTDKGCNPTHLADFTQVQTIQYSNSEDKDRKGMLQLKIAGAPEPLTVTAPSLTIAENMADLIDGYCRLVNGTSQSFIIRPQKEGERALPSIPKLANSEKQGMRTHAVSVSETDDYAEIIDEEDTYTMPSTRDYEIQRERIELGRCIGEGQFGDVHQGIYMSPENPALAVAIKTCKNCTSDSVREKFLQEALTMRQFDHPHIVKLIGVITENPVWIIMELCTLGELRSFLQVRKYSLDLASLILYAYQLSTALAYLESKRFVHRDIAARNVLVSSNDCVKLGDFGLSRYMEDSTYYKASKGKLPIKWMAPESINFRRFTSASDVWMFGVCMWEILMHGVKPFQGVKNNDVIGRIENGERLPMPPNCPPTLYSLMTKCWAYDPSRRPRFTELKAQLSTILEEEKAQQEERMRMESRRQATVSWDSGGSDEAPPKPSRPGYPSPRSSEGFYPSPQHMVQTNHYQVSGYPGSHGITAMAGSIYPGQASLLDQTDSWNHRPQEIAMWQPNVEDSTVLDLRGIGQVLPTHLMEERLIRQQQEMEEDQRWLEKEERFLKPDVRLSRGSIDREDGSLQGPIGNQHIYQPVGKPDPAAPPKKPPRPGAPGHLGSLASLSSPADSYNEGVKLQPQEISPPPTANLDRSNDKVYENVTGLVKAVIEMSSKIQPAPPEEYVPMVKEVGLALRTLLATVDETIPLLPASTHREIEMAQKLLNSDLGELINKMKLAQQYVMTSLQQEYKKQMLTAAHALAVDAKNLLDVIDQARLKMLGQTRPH
UniProt Q14289, whole entry, looked up: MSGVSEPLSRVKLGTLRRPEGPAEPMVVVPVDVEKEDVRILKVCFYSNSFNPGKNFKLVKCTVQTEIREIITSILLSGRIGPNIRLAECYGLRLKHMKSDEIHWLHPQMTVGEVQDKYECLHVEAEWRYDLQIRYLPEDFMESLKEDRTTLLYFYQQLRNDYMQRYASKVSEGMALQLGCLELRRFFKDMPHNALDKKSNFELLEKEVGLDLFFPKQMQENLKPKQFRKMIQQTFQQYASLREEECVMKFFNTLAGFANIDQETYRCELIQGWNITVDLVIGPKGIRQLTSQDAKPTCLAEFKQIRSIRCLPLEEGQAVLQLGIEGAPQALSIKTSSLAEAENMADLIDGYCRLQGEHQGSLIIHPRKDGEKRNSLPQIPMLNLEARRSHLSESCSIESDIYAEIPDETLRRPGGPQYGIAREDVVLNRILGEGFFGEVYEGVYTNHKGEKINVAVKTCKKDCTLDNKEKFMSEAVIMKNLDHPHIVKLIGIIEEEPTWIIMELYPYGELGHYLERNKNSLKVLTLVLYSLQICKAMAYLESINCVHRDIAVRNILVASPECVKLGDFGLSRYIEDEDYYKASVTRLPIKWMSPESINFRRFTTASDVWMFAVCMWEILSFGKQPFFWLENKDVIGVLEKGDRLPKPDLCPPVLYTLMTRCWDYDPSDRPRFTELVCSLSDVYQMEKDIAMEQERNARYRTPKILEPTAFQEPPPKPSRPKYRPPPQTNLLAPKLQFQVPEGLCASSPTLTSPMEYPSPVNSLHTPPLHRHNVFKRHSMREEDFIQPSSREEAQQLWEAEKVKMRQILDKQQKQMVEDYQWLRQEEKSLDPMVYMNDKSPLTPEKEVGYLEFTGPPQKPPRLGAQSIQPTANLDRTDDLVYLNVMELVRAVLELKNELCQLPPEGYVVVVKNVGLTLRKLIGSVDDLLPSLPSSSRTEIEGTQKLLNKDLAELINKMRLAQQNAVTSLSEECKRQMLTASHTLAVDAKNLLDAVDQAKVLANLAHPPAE

Row | SMILES | kinase-Nluc reporter destabilization hit call (MAPK1; 2.5 µM) | kinase-Nluc reporter destabilization hit call (MAPK4; 2.5 µM) | kinase-Nluc reporter destabilization hit call (MAPKAPK2; 2.5 µM) | kinase-Nluc reporter destabilization hit call (MKNK1; 2.5 µM) | kinase-Nluc reporter destabilization hit call (NTRK2; 2.5 µM) | kinase-Nluc reporter destabilization hit call (NTRK3; 2.5 µM) | kinase-Nluc reporter destabilization hit call (PAK4; 2.5 µM) | kinase-Nluc reporter destabilization hit call (PBK; 2.5 µM) | kinase-Nluc reporter destabilization hit call (PDGFRB; 2.5 µM) | kinase-Nluc reporter destabilization hit call (PDK1; 2.5 µM) | kinase-Nluc reporter destabilization hit call (PDPK1; 2.5 µM) | kinase-Nluc reporter destabilization hit call (PIK4CA; 2.5 µM) | kinase-Nluc reporter destabilization hit call (PIK4CB; 2.5 µM) | kinase-Nluc reporter destabilization hit call (PLK1; 2.5 µM) | kinase-Nluc reporter destabilization hit call (PRKAA1; 2.5 µM) | kinase-Nluc reporter destabilization hit call (PRKCA; 2.5 µM) | kinase-Nluc reporter destabilization hit call (PTK2; 2.5 µM) | kinase-Nluc reporter destabilization hit call (PTK2B; 2.5 µM) | kinase-Nluc reporter destabilization hit call (RAF1; 2.5 µM) | kinase-Nluc reporter destabilization hit call ([1]; 2.5 µM) | kinase-Nluc reporter destabilization hit call (MAPK1; 10 µM) | kinase-Nluc reporter destabilization hit call (MAPK4; 10 µM) | kinase-Nluc reporter destabilization hit call (MAPKAPK2; 10 µM) | kinase-Nluc reporter destabilization hit call (MKNK1; 10 µM) | kinase-Nluc reporter destabilization hit call (NTRK2; 10 µM) | kinase-Nluc reporter destabilization hit call (NTRK3; 10 µM) | kinase-Nluc reporter destabilization hit call (PAK4; 10 µM) | kinase-Nluc reporter destabilization hit call (PBK; 10 µM) | kinase-Nluc reporter destabilization hit call (PDGFRB; 10 µM) | kinase-Nluc reporter destabilization hit call (PDK1; 10 µM) | kinase-Nluc reporter destabilization hit call (PDPK1; 10 µM) | kinase-Nluc reporter destabilization hit call (PIK4CA; 10 µM) | kinase-Nluc reporter destabilization hit call (PIK4CB; 10 µM) | kinase-Nluc reporter destabilization hit call (PLK1; 10 µM) | kinase-Nluc reporter destabilization hit call (PRKAA1; 10 µM) | kinase-Nluc reporter destabilization hit call (PRKCA; 10 µM) | kinase-Nluc reporter destabilization hit call (PTK2; 10 µM) | kinase-Nluc reporter destabilization hit call (PTK2B; 10 µM) | kinase-Nluc reporter destabilization hit call (RAF1; 10 µM) | kinase-Nluc reporter destabilization hit call ([1]; 10 µM)
1 | CC1(C)CNc2cc(NC(=O)c3cccnc3NCc3ccncc3)ccc21 [Motesanib] | inactive: 0 | inactive: 0 | inactive: 0 | inactive: 0 | inactive: 0 | inactive: 0 | inactive: 0 | inactive: 0 | inactive: 0 | inactive: 0 | inactive: 0 | inactive: 0 | inactive: 0 | inactive: 0 | inactive: 0 | inactive: 0 | inactive: 0 | inactive: 0 | inactive: 0 | inactive: 0 | – | – | – | – | – | – | – | – | – | – | – | – | – | – | – | – | – | – | – | –
2 | O=C(Nc1cccc(Nc2nccc(Nc3cccc(C(F)(F)F)c3)n2)c1)C1CC1 [Aurora kinase inhibitor-3] | inactive: 0 | inactive: 0 | inactive: 0 | inactive: 0 | inactive: 0 | inactive: 0 | inactive: 0 | inactive: 0 | inactive: 0 | inactive: 0 | inactive: 0 | inactive: 0 | inactive: 0 | inactive: 0 | inactive: 0 | inactive: 0 | inactive: 0 | inactive: 0 | inactive: 0 | inactive: 0 | – | – | – | – | – | – | – | – | – | – | – | – | – | – | – | – | – | – | – | –
3 | NC1(C(=O)N[C@@H](CCO)c2ccc(Cl)cc2)CCN(c2nc[nH]c3nccc2-3)CC1 [Capivasertib] | – | – | – | – | – | – | – | – | – | – | – | – | – | – | – | – | – | – | – | – | inactive: 0 | inactive: 0 | inactive: 0 | inactive: 0 | inactive: 0 | inactive: 0 | inactive: 0 | inactive: 0 | inactive: 0 | inactive: 0 | inactive: 0 | inactive: 0 | inactive: 0 | inactive: 0 | inactive: 0 | inactive: 0 | inactive: 0 | inactive: 0 | inactive: 0 | inactive: 0
4 | C=CC(=O)N1C[C@@H](Nc2ncnc3[nH]ccc23)CC[C@H]1C [(2R,5S)-Ritlecitinib] | – | – | – | – | – | – | – | – | – | – | – | – | – | – | – | – | – | – | – | – | inactive: 0 | inactive: 0 | inactive: 0 | inactive: 0 | inactive: 0 | inactive: 0 | inactive: 0 | inactive: 0 | inactive: 0 | inactive: 0 | inactive: 0 | inactive: 0 | inactive: 0 | inactive: 0 | inactive: 0 | inactive: 0 | inactive: 0 | inactive: 0 | inactive: 0 | inactive: 0
5 | CCn1c(=O)c(-c2cc(NC(=O)Nc3ccccc3)c(F)cc2Br)cc2cnc(NC)cc21 [Ripretinib] | – | – | – | – | – | – | – | – | – | – | – | – | – | – | – | – | – | – | – | – | inactive: 0 | inactive: 0 | inactive: 0 | active: 1 | inactive: 0 | inactive: 0 | inactive: 0 | inactive: 0 | inactive: 0 | inactive: 0 | inactive: 0 | inactive: 0 | inactive: 0 | inactive: 0 | inactive: 0 | inactive: 0 | inactive: 0 | inactive: 0 | inactive: 0 | inactive: 0
6 | C=CC(=O)Nc1cc2c(Nc3ccc(F)c(Cl)c3)ncnc2cc1OCCCN1CCOCC1 [Canertinib] | – | – | – | – | – | – | – | – | – | – | – | – | – | – | – | – | – | – | – | – | inactive: 0 | inactive: 0 | inactive: 0 | inactive: 0 | inactive: 0 | inactive: 0 | inactive: 0 | inactive: 0 | inactive: 0 | inactive: 0 | inactive: 0 | inactive: 0 | inactive: 0 | inactive: 0 | inactive: 0 | inactive: 0 | inactive: 0 | inactive: 0 | inactive: 0 | inactive: 0
7 | Cc1cc2c(F)c(Oc3ncnn4cc(OC[C@@H](C)O)c(C)c34)ccc2[nH]1 [Brivanib] | – | – | – | – | – | – | – | – | – | – | – | – | – | – | – | – | – | – | – | – | inactive: 0 | inactive: 0 | inactive: 0 | inactive: 0 | inactive: 0 | inactive: 0 | inactive: 0 | inactive: 0 | inactive: 0 | inactive: 0 | inactive: 0 | inactive: 0 | inactive: 0 | inactive: 0 | inactive: 0 | inactive: 0 | inactive: 0 | inactive: 0 | inactive: 0 | inactive: 0
8 | Nc1ncnc2n[nH]c(-c3ccc(Oc4ccccc4)cc3)c12 [Ibrutinib deacryloylpiperidine] | – | – | – | – | – | – | – | – | – | – | – | – | – | – | – | – | – | – | – | – | inactive: 0 | inactive: 0 | inactive: 0 | inactive: 0 | inactive: 0 | inactive: 0 | inactive: 0 | inactive: 0 | inactive: 0 | inactive: 0 | inactive: 0 | inactive: 0 | inactive: 0 | inactive: 0 | inactive: 0 | inactive: 0 | inactive: 0 | inactive: 0 | inactive: 0 | inactive: 0
9 | Cc1ccc(Nc2nccc(N(C)c3ccc4c(C)n(C)nc4c3)n2)cc1S(N)(=O)=O [Pazopanib] | – | – | – | – | – | – | – | – | – | – | – | – | – | – | – | – | – | – | – | – | inactive: 0 | inactive: 0 | inactive: 0 | inactive: 0 | inactive: 0 | inactive: 0 | inactive: 0 | inactive: 0 | inactive: 0 | inactive: 0 | inactive: 0 | inactive: 0 | inactive: 0 | inactive: 0 | inactive: 0 | inactive: 0 | inactive: 0 | inactive: 0 | inactive: 0 | inactive: 0

From the supplement of paper PMC12823440, “Inhibitors supercharge kinase turnover through native proteolytic circuits” (Nature, 2025)
